Data taken from article PMC9117268, “HDLBP binds ER-targeted mRNAs by multivalent interactions to promote protein synthesis of transmembrane and secreted proteins”.
Construct, isoform or probe ends are uncertain for at least one entry. The comparison behind a weaker result is the experiment's own reference, which may not be listed here. At least one verdict rests on a figure or table, not on a statement of the authors. Where a protein sequence is shown, tags need not be part of it.

Target: T1, HDLBP construct B (KH5-9) (Homo sapiens) (UniProt Q00341)
T1 sequence (looked up, limits assumed): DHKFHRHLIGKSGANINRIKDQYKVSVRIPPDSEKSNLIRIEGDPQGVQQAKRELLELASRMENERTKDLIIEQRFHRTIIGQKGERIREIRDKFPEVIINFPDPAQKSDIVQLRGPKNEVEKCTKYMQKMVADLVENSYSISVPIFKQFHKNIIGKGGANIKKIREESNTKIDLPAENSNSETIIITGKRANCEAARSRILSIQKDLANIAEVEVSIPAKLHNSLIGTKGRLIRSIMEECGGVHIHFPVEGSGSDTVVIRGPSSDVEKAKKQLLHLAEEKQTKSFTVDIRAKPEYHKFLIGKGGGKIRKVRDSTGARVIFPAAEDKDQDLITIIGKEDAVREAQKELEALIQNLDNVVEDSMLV
Assay: fluorescence anisotropy
Settings: 20 mM Tris pH 7.5, 60 mM KCl, 1 mM EDTA, 10% glycerol, 1 ng/ul tRNA, 1 ng/ul heparin, 0.4 U/ul RNasin, 200 ng/ul BSA; 10 nM RNA probe; 20 min on ice; recombinant protein; protein details: N-terminal GST; label: 5' FAM

Sequence | binding result
AAAAAACUUCAAAAAAAAAAAAAACUUCAAAAAA [H40 (2x CUUC)] | binds more weakly
AAAAAAUCUUAAAAAAAAAAAAAAUCUUAAAAAA [H42 (2x UCUU)] | binds more weakly
AAAAACUUCAAAAAACUUCAAAAAACUUCAAAAA [H44 (3x CUUC, shifted spacing)] | binds
AAAAAAUCUUAAAAAUCUUAAAAAUCUUAAAAAA [H43 (3x UCUU)] | binds
AAAAAACUUCAAAAACUUCAAAAACUUCAAAAAA [H41 (3x CUUC)] | binds

Same assay, conditions: 20 mM Tris pH 7.5, 60 mM KCl, 1 mM EDTA, 10% glycerol, 1 ng/ul tRNA, 1 ng/ul heparin, 0.4 U/ul RNasin, 200 ng/ul BSA; 10 nM RNA probe; 20 min on ice; recombinant protein; protein details: N-terminal GST; label: 5' fluorescein

Sequence | binding result
CCCCCUCGAUGCUCUUAGCUGAGU [18S rRNA ES6 region] | binds more weakly
AUUCCCUUCCUUCAAUCACACUCAGUUUCCACC [TFRC_1] | binds

Target: T2, HDLBP construct C (five C-terminal KH domains) (Homo sapiens) (UniProt Q00341)
T2 sequence (looked up, limits assumed): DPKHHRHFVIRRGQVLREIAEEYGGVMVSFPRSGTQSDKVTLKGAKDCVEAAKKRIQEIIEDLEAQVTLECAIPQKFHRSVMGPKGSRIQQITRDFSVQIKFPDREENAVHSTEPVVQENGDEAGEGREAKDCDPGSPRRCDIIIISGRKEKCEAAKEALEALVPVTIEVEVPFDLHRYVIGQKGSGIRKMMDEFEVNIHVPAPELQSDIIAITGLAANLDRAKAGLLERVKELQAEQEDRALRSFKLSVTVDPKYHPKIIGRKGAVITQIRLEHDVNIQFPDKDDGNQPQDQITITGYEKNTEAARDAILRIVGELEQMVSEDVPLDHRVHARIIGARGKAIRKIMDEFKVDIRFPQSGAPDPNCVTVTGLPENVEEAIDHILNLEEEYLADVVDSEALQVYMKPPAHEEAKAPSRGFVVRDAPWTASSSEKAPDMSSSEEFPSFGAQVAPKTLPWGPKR
Assay: fluorescence anisotropy
Settings: 20 mM Tris pH 7.5, 60 mM KCl, 1 mM EDTA, 10% glycerol, 1 ng/ul tRNA, 1 ng/ul heparin, 0.4 U/ul RNasin, 200 ng/ul BSA; 10 nM RNA probe; 20 min on ice; recombinant protein; protein details: N-terminal GST; label: 5' fluorescein

Sequence | binding result
AUUCCCUUCCUUCAAUCACACUCAGUUUCCACC [TFRC_1] | binds more weakly

Target: T3, HDLBP full-length (FL), Vigilin (Homo sapiens) (UniProt Q00341)
T3 sequence (looked up, limits assumed): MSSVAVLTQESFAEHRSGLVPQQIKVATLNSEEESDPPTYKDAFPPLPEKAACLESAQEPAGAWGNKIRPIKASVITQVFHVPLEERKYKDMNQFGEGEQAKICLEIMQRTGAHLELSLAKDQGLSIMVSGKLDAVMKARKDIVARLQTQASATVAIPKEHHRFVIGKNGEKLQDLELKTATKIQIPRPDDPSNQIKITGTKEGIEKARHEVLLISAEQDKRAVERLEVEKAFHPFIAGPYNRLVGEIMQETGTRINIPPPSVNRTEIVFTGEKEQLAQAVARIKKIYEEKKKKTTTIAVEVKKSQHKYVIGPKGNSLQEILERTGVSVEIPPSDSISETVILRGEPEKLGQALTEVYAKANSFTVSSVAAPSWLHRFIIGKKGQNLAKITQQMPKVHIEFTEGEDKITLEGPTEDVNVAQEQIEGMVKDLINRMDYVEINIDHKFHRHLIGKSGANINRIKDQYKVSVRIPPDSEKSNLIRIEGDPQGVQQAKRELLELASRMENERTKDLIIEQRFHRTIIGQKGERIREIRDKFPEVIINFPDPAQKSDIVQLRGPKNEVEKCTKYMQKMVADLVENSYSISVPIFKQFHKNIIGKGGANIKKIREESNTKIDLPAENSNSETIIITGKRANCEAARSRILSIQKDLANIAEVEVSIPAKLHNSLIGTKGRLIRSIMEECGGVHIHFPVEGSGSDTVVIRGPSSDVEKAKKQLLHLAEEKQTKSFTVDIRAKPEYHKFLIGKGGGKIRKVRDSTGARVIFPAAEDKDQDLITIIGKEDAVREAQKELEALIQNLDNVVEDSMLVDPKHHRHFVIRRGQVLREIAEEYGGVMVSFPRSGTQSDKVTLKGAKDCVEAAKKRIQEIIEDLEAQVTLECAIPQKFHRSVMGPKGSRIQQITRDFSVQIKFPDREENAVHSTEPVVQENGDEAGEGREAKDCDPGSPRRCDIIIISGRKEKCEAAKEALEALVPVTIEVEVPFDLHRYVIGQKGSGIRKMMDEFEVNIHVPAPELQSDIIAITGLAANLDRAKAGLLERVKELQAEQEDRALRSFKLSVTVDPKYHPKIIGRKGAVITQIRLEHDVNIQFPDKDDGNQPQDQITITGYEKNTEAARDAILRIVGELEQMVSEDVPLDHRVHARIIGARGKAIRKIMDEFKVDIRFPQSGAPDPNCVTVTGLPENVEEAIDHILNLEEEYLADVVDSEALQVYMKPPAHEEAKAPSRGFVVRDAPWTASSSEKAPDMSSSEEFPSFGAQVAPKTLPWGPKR
Assay: fluorescence anisotropy
Settings: 20 mM Tris pH 7.5, 60 mM KCl, 1 mM EDTA, 10% glycerol, 1 ng/ul tRNA, 1 ng/ul heparin, 0.4 U/ul RNasin, 200 ng/ul BSA; 10 nM RNA probe; 20 min on ice; recombinant protein; label: 5' fluorescein

Sequence | binding result
CUUCUUCUUCUUCUUCUUCUUCUUCUUCUUCUU [CUU_oligomer] | binds
CCCCCUCGAUGCUCUUAGCUGAGU [18S rRNA ES6 region] | binds more weakly
AAUCCCAUCCAUCAAUCACACACAGUAUCCACC [TFRC_1_mut] | binds more weakly
CCUCCUCCUCCUCCUCCUCCUCCUCCUCCUCCU [CCU_oligomer] | binds
